# Key:
# MOLT-4 cells = test: Cellular antiproliferation assay (CCK-8), MOLT-4; assay type: cell-based; details: Homo sapiens, MOLT-4, 72 h, read-out: Antiproliferation IC50, MOLT-4
# U937 cells = test: Cellular antiproliferation assay (CCK-8), U937; assay type: cell-based; details: Homo sapiens, U-937, 72 h, read-out: Antiproliferation IC50, U937
smiles,measurement,setting,value
"Cc1ccc(NC(=O)c2ccc(CN3CCN(C)CC3)cc2)cc1Nc1nccc(-c2cccnc2)n1 [Imatinib, imatinib]",IC50,MOLT-4 cells,48.5 µM
same,IC50,U937 cells,16 µM

# — article PMC6010122 (Journal of Enzyme Inhibition and Medicinal Chemistry, 2017)
